Drawing on PubChem BioAssay AID555 (SRMLSC, 2006), this text covers inhibition for one compound.

Structures are written as SMILES. The list shows a part of the results.

The inhibition is the percentage by which the read-out fell short of the control.

In the experiment the test system is mevalonate kinase [Streptococcus pneumoniae D39]. Description: S. pneumoniae MK inhibitors, primary screen, biochemical, PK/LDH-coupled NADH absorbance (AID 555). The note with it: purified MK, PK/LDH-coupled NADH absorbance 340 nm; measured here: pilot screen replicates; at 10 µM; stronger effect = higher value.
On to `Fc1ccccc1NC1CCN(Cc2ccccc2)CC1`, for which the inhibition turned out to be 1.5%.
